Laboratory results published in PubChem BioAssay AID1487 (National Center for Advancing Translational Sciences (NCATS), 2009).
Some of the results follow. Shown are side measurements of this screen, not its main read-out; they come without a call. The list favours compounds with an active or inconclusive main result. Potencies come from curve fits of mixed quality, noted in brackets.

Test: qHTS Assay for Modulators of Lamin A Splicing
Conditions: HeLa LMNA splicing GFP/RFP minigene ratio, 48 h
Method in brief: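 S3 HeLa cells stably expressing lamin A-EGFP splicing minigene plus DsRed2, 600 cells/well, 48 h compound exposure at 37C. Laser-scanning cytometry; analysed as GFP (500-530 nm)/RFP (575-640 nm) total intensity ratio; 0.5% DMSO vehicle.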

[1] = measured here: RFP viability control channel
[2] = measured here: GFP splicing reporter channel

CCC(C)c1ccccc1NC(=O)COC(=O)c1ccc2[nH]c3c(c2c1)CCCC3 (stereo not given)
AC50 [1]: 14.1 µM [rising, single point]

Cn1c(=O)c2c(-c3ccccc3)n(-c3ccccc3O)cc2n(C)c1=O
AC50 [1]: 4.47 µM [falling, full curve, poor fit]

Cc1cn2c(=O)cc(COC(=O)c3ccc(NC(=O)c4ccc(C(C)(C)C)cc4)cc3)nc2s1
AC50 [1]: 0.00708 µM [rising, full curve, poor fit]

COc1ccc(C2=Nc3ccccc3N(CC(=O)Nc3cccc(C(C)=O)c3)C(=O)C2)cc1
AC50 [2]: 11.2 µM [falling, partial curve]
AC50 [1]: 11.2 µM [falling, partial curve]

COc1ccc(/C(O)=C/c2nc3ccc(C(=O)NCCc4cccc(C)c4)cc3[nH]c2=O)cc1OC
AC50 [2]: 35.5 µM [falling, single point]
AC50 [1]: 35.5 µM [falling, single point]

COc1ccc2c(c1)O[C@H](c1ccc3c(c1)OCO3)[C@@H](OC(=O)N[C@H](C)C1CCCCC1)C2=O
AC50 [1]: 12.6 µM [rising, partial curve, poor fit]

COc1ccc(OCCCn2c(C)nc3cc(C)c(C)cc32)cc1
AC50 [2]: 11.2 µM [falling, partial curve]
AC50 [1]: 15.8 µM [falling, partial curve]

CCOC(=O)c1sc(NC(=O)Nc2ccc(Cl)cc2)cc1C
AC50 [1]: 11.2 µM [rising, partial curve]

N#CC1=C(SCC(=O)Nc2nccs2)NC(=O)CC1c1ccccc1 (stereo not given)
AC50 [1]: 35.5 µM [rising, single point]

CCOc1ccccc1OCCCCCc1c(C)n[nH]c1C
AC50 [2]: 2 µM [rising, partial curve]
AC50 [1]: 11.2 µM [rising, partial curve]

COCCn1nnnc1CN(CCCN1CCOCC1)Cc1cc2c(C)ccc(C)c2[nH]c1=O
AC50 [1]: 35.5 µM [rising, single point]

Cc1nc2c(cc(Oc3ccc(S(=O)(=O)N4CCOCC4)cn3)c3ccsc32)s1
AC50 [2]: 11.2 µM [rising, single point]
AC50 [1]: 15.8 µM [rising, single point]

CCOC(=O)c1cc(-c2ccc(OC)cc2)n(CCC(=O)NCCc2ccc(OCC)c(OCC)c2)c1C
AC50 [2]: 5.62 µM [rising, single point]

COC(=O)c1ccc(/C=C/C(=O)c2ccc(OC)cc2)cc1
AC50 [2]: 28.2 µM [falling, single point]
AC50 [1]: 25.1 µM [falling, partial curve]

Cc1ccc(C)n1-c1ccc(-n2cnnn2)cc1
AC50 [1]: 7.08 µM [falling, partial curve]

O=c1[nH]c(=O)c2nc3ccccc3nc2[nH]1
AC50 [2]: 0.000794 µM [falling, full curve, poor fit]
AC50 [1]: 0.000891 µM [falling, full curve, poor fit]

CCCc1[nH]n(-c2nc3ccccc3s2)c(=O)c1C=NCC(C)C
AC50 [1]: 35.5 µM [rising, single point]

Cc1ccc(C2C(=O)N(C3CCCCCC3)CC(=O)N2CCC2=CCCCC2)cc1 (stereo not given)
AC50 [2]: 0.00355 µM [falling, full curve, poor fit]

O=c1cc(-c2ccccc2)[nH]c2nc(Cl)ccc12
AC50 [2]: 2.51 µM [falling, full curve]
AC50 [1]: 2.82 µM [falling, full curve]

COc1cc([N+](=O)[O-])ccc1NC(=O)N1CCC2(CC1)Nc1cc(F)ccc1-n1cccc12
AC50 [2]: 1.58 µM [rising, full curve]
AC50 [1]: 3.16 µM [rising, full curve]

N#CC1(C#N)CC(C=O)=C(N)C1(C#N)CC(=O)C12CC3CC(CC(C3)C1)C2 (stereo not given)
AC50 [1]: 22.4 µM [rising, single point]

Fc1cccc2sc(Nc3nnc(-c4ccccc4)o3)nc12
AC50 [1]: 7.08 µM [rising, full curve]

Cc1ccc(OC(F)F)c(NC(=O)Nc2cccc(C(F)(F)F)c2)c1
AC50 [2]: 15.8 µM [rising, single point]
AC50 [1]: 12.6 µM [rising, partial curve]

CCc1ccccc1-n1cnc2cc(C(=O)O)ccc21
AC50 [1]: 0.141 µM [falling, partial curve, poor fit]

N#C/C(=C\c1ccc(O)c(O)c1)C(=O)NCCc1ccccc1
AC50 [2]: 11.2 µM [falling, partial curve, poor fit]
AC50 [1]: 0.000794 µM [falling, full curve, poor fit]

COc1ccc(C(=O)c2ccc(N(C)C)cc2)c2ccccc12
AC50 [1]: 1.78 µM [rising, partial curve]

CCOC(=O)Cc1csc(NC(=S)NC(=O)c2ccc(F)cc2)n1
AC50 [1]: 14.1 µM [falling, partial curve]

CCCC(C(=O)Nc1cc(C)c(Cl)cc1OC)N1Cc2ccccc2C1=O (stereo not given)
AC50 [2]: 35.5 µM [rising, single point]
AC50 [1]: 35.5 µM [rising, single point]

COc1ccc(/C=C2\CCCC3C2=NN(C(=O)CSc2ncn[nH]2)C3c2ccc(OC)cc2)cc1 (stereo not given)
AC50 [2]: 28.2 µM [falling, single point]

Cc1ccc(OCC(O)CN2CCN(c3ccccn3)CC2)c(C)c1 (stereo not given)
AC50 [2]: 0.562 µM [falling, partial curve, poor fit]
AC50 [1]: 17.8 µM [falling, partial curve, poor fit]

Cc1cc(C)cc(C(=O)N2CCN=C2SCc2ccc([N+](=O)[O-])cc2)c1
AC50 [1]: 22.4 µM [falling, single point]

Cc1ccc(CCNC(=O)c2ccc(CNS(=O)(=O)c3ccc(F)cc3)cc2)cc1
AC50 [2]: 0.282 µM [rising, full curve, poor fit]

S=C(Nc1ccccc1Cl)N1CCOCC1
AC50 [2]: 0.0891 µM [falling, full curve, poor fit]

Nc1c(C(=O)Nc2ccccc2F)sc2nc(Cc3ccccc3)cc(C(F)(F)F)c12
AC50 [1]: 3.98 µM [falling, full curve]

Cc1c(C(=O)Nc2ccccc2Cl)oc2ccc(S(=O)(=O)N3CCCCCC3)cc12
AC50 [2]: 35.5 µM [rising, single point]

O=C(COc1ccc([N+](=O)[O-])cc1)N/N=C/c1cc([N+](=O)[O-])ccc1N1CCOCC1
AC50 [1]: 0.0794 µM [rising, full curve, poor fit]

CC(C)c1ccc(N(CC(=O)NCC2CCCO2)C(=O)Cn2nnc(-c3cccs3)n2)cc1 (stereo not given)
AC50 [2]: 28.2 µM [falling, single point]

O=C1N=C(N2CCOCC2)S/C1=C\c1ccc(-c2ccccc2Cl)o1
AC50 [1]: 2.24 µM [rising, full curve, poor fit]

CC(Sc1ncnc2ccccc12)C(=O)Nc1ccc2c(c1)OCCO2 (stereo not given)
AC50 [1]: 12.6 µM [rising, partial curve, poor fit]

CCOc1ccc(NC(=S)NCc2ccc3[nH]c(C)cc3c2)cc1
AC50 [2]: 0.355 µM [rising, partial curve]

CC(=O)Nc1nc(C)c(-c2csc(Nc3cccc([N+](=O)[O-])c3)n2)s1
AC50 [2]: 25.1 µM [falling, single point]
AC50 [1]: 35.5 µM [falling, single point]

CCN(CC)C1=N/C(=C\c2ccc(OC)cc2)C(=O)N1c1ccccc1
AC50 [2]: 11.2 µM [rising, partial curve, poor fit]
AC50 [1]: 14.1 µM [rising, partial curve]

Cc1cccc(N2CCN(C(=O)c3c4c(nc5ccccc35)C(=O)N(C3CCCCC3)C4)CC2)c1C
AC50 [1]: 0.398 µM [rising, full curve, poor fit]

CC(C)n1c(C(O)c2ccccc2)nc2ccccc21 (stereo not given)
AC50 [2]: 8.91 µM [rising, partial curve, poor fit]
AC50 [1]: 11.2 µM [rising, single point]

CCN1C(=O)N/C(=C/c2cc(C)n(Cc3ccccc3)c2C)C1=O
AC50 [2]: 11.2 µM [rising, partial curve]
AC50 [1]: 22.4 µM [rising, single point]

O=C(CCc1nnc(Cc2c[nH]c3ccccc23)o1)NCC1CC12CCCCC2 (stereo not given)
AC50 [2]: 12.6 µM [falling, single point]
AC50 [1]: 12.6 µM [falling, single point]

COc1cc(OC)c(NC(=O)C(C)n2nc(-c3ccc(C)c(C)c3)ccc2=O)cc1Cl (stereo not given)
AC50 [1]: 0.891 µM [falling, partial curve]

COc1ccc(C(=O)Nc2ccc3c(c2)N(C)C(=O)c2ccccc2S3)cc1OC
AC50 [2]: 31.6 µM [rising, single point]

Cn1c(=O)c2c(nc(SCCN3CCOCC3)n2Cc2ccccc2Cl)n(C)c1=O
AC50 [2]: 25.1 µM [rising, single point]

Cc1ccc(S(=O)(=O)N(CCC(=O)Nc2ccc(OC(F)(F)F)cc2)c2ccccc2)cc1
AC50 [1]: 20 µM [rising, single point]

O=C(Nc1cccc(Cl)c1)C1=Cc2cc(Cl)ccc2OC1
AC50 [2]: 35.5 µM [rising, single point]
AC50 [1]: 35.5 µM [rising, single point]

COc1ccc(NC(=O)c2ccc3c(=O)n4nc(Nc5ccccc5C)sc4nc3c2)cc1
AC50 [1]: 35.5 µM [falling, single point]

Cc1nnc(N2CCC(C(=O)NCc3cccc(Cl)c3)CC2)c2nn(-c3ccccc3)c(C)c12
AC50 [2]: 35.5 µM [falling, single point]
AC50 [1]: 35.5 µM [falling, single point]

CCOC(=O)c1c(NC(=O)COC(=O)Cn2cnc3ccccc32)sc(C)c1C
AC50 [2]: 35.5 µM [rising, single point]
AC50 [1]: 35.5 µM [rising, single point]
